# Results as given in US20190240171.
# Legend:
# [1] = target: T1, ATF4 (UniProt Q06507); assay: binding assay; settings: ChIP-PCR, E15.5 WT and C10-ATF4 limbs; the exact amplicon is not stated, SEQ 2 is the reported ATF4 peak region; protein in cells
# T1 sequence (looked up, limits assumed): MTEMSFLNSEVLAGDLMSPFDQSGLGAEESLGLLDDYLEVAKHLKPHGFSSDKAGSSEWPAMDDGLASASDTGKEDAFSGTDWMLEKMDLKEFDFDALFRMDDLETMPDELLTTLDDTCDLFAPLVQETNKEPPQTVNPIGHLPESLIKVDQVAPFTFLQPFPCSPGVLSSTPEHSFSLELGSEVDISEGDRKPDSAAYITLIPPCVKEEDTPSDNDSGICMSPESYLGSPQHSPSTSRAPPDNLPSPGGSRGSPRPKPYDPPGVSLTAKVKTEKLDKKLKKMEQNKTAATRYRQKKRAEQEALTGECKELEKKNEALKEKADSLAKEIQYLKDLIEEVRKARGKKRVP
# [2] = target: T1, ATF4; assay: activity in cells; settings: luciferase reporter transactivation, ATDC5 cells; motif-containing Sox9 promoter; protein in cells
sequence,measurement,setting,value
GTCACCCAAACATTTGCTTCCAAAAGACCATTTCTAAGCACTTTTTTTGGAAGCCGGCAGACTCCAGGCGCAGAAGCCCAGCTCCGCTTTGACGAGCAGCTGTTGCAATTTCCATTGCTGTAAACGCCAGCGAAGTCCCGGGTACCAC (double strand),binding result,[1],binds
same,activity on this sequence,[2],active

# For some assays here: Where cells or extracts were used, other partners may take part. Tags and fusion partners may be left off the protein sequences shown. For some assays here: The exact form of at least one protein or probe is not confirmed.
